Laboratory results: PMC3507953
These are yes or no findings as the source states them, for the method shown. Binding seen in cells or lysates may run through a third protein. Some results given as binding are weak or reduced against the parent protein; the word gives no strength. For some assays here: Sequences can lack the tags named with a protein.

What was measured:
Myc-Ebf1 (HeLa) = biological target: T1, Myc-Ebf1 (HeLa) (UniProt Q07802); assay: co-IP; HeLa cells transfected with HA-Zfp521 and Myc-Ebf1, harvested after 24 h; immunoprecipitation with anti-Myc beads, Western blot with anti-HA or anti-Myc; Triton X lysis buffer (50 mM Tris-HCl pH 7.4, 150 mM NaCl, 1% Triton X-100, 5 mM EDTA)
T1 sequence: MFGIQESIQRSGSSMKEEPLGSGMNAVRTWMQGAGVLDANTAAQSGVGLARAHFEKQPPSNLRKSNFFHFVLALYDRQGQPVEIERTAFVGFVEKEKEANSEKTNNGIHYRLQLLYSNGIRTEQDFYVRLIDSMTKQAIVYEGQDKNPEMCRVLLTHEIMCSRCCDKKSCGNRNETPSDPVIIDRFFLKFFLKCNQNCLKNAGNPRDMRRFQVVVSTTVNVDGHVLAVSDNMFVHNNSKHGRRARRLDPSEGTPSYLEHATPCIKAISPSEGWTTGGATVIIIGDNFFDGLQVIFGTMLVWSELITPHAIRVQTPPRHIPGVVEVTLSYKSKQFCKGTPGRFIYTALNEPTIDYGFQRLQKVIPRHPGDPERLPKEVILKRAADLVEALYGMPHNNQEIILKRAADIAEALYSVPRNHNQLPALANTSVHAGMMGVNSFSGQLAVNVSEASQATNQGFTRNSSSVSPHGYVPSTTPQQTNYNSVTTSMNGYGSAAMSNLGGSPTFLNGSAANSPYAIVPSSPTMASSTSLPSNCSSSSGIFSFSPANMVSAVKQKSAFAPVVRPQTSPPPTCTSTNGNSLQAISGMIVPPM

[1] = biological target: T2, early B cell factor 1 (Ebf1) (native, 3T3-L1 preadipocytes) (mouse (endogenous in 3T3-L1)) (UniProt Q07802); assay: co-IP; native proteins of 3T3-L1 preadipocytes; endogenous Ebf1 immunoprecipitated with anti-Ebf1 beads, blotted with normal goat IgG or anti-Zfp521
T2 sequence: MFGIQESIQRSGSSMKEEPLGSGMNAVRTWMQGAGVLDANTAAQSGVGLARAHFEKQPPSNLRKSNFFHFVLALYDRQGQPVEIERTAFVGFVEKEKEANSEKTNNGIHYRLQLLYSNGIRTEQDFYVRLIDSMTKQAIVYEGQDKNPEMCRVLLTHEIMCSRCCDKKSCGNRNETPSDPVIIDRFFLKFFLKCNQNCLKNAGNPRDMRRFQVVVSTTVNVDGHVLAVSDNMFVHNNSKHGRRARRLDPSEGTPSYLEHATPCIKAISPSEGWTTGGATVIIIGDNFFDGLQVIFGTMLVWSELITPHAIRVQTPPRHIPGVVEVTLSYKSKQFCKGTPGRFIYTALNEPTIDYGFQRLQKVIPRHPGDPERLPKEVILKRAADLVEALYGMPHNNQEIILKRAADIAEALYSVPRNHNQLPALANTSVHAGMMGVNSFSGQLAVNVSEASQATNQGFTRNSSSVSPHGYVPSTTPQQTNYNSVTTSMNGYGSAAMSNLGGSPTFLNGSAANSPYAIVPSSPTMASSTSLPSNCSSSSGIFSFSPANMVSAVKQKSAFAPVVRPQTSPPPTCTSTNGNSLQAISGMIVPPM

B1: HA-Zfp521 (HeLa) (protein, UniProt Q6KAS7 1-1311)
chain: MSRRKQAKPRSLKDPNCKLEDKIEDGEAVDCKKRPEDGEELEEDAVHSCDSCLQVFESLSDITEHKIHQCQLTDGVDVEDDPSCSWPASSPSSKDQTSPSHGEGCDFGEEEGGPGLPYPCQFCDKSFSRLSYLKHHEQSHSDKLPFKCTYCSRLFKHKRSRDRHIKLHTGDKKYHCSECDAAFSRSDHLKIHLKTHTSNKPYKCAVCRRGFLSSSSLHGHMQVHERNKDGSQSGSRMEDWKMKDTQKCSQCEEGFDFPEDLQKHIAECHPECSPNEDRAALQCMYCHELFVEETSLMNHIEQVHGGEKKNSCSICSESFLTVEELYSHMDSHQQPESCNHSNSPSLVTVGYTSVSSTTPDSNLSVDSSTMVEAAPPIPKSRGRKRAAQQTSDMTGPSSKQAKVTYSCIYCNKQLFSSLAVLQIHLKTMHLDKPEQAHICQYCLEVLPSLYNLNEHLKQVHEAQDPGLIVSAMPAIVYQCNFCSEVVNDLNTLQEHIRCSHGFANPAAKDSNAFFCPHCYMGFLTDSSLEEHIRQVHCDLSGSRFGSPVLGTPKEPVVEVYSCSYCTNSPIFNSVLKLNKHIKENHKNIPLALNYIHNGKKSRALSPLSPVAIEQTTLKMMQTVGGGPARASGEYICNQCGAKYTSLDSFQTHLKTHLDTVLPKLTCPQCNKEFPNQESLLKHVTIHFMITSTYYICESCDKQFTSVDDLQKHLLDMHTFVFFRCTLCQEVFDSKVSIQLHLAVKHSNEKKVYRCTSCNWDFRNETDLQLHVKHNHLENQGKVHKCIFCGESFGTEVELQCHITTHSKKYNCRFCSKAFHAVILLEKHLREKHCVFETKTPNCGTNGASEQVQKEEAELQTLLTNSQESHNSHDGSEEDVDSSEPMYGCDICGAAYTMETLLQNHQLRDHNIRPGESAIVKKKAELIKGNYKCNVCSRTFFSENGLREHMQTHLGPVKHYMCPICGERFPSLLTLTEHKVTHSKSLDTGNCRICKMPLQSEEEFLEHCQMHPDLRNSLTGFRCVVCMQTVTSTLELKIHGTFHMQKTGNGSSVQTTGRGQHVQKLYKCASCLKEFRSKQDLVKLDINGLPYGLCAGCVNLSKSSSPGLSLPPGASRPGLGQNESLSAMEGKGKAGGLKTRCSSCNVKFESESELQNHIQTVHRELVPDANSTQLKTPQVSPMPRISPSQSDEKKTYQCIKCQMVFYNEWDIQVHVANHMIDEGLNHECKLCSQTFDSPAKLQCHLIEHSFEGMGGTFKCPVCFTVFVQANKLQQHIFSAHGQEDKIYDCTQCPQKFFFQTELQNHTMTQHSS
binding (Myc-Ebf1 (HeLa)): binds

B2: Zfp521 (native, 3T3-L1 preadipocytes) (protein, UniProt Q6KAS7 1-1311)
chain: MSRRKQAKPRSLKDPNCKLEDKIEDGEAVDCKKRPEDGEELEEDAVHSCDSCLQVFESLSDITEHKIHQCQLTDGVDVEDDPSCSWPASSPSSKDQTSPSHGEGCDFGEEEGGPGLPYPCQFCDKSFSRLSYLKHHEQSHSDKLPFKCTYCSRLFKHKRSRDRHIKLHTGDKKYHCSECDAAFSRSDHLKIHLKTHTSNKPYKCAVCRRGFLSSSSLHGHMQVHERNKDGSQSGSRMEDWKMKDTQKCSQCEEGFDFPEDLQKHIAECHPECSPNEDRAALQCMYCHELFVEETSLMNHIEQVHGGEKKNSCSICSESFLTVEELYSHMDSHQQPESCNHSNSPSLVTVGYTSVSSTTPDSNLSVDSSTMVEAAPPIPKSRGRKRAAQQTSDMTGPSSKQAKVTYSCIYCNKQLFSSLAVLQIHLKTMHLDKPEQAHICQYCLEVLPSLYNLNEHLKQVHEAQDPGLIVSAMPAIVYQCNFCSEVVNDLNTLQEHIRCSHGFANPAAKDSNAFFCPHCYMGFLTDSSLEEHIRQVHCDLSGSRFGSPVLGTPKEPVVEVYSCSYCTNSPIFNSVLKLNKHIKENHKNIPLALNYIHNGKKSRALSPLSPVAIEQTTLKMMQTVGGGPARASGEYICNQCGAKYTSLDSFQTHLKTHLDTVLPKLTCPQCNKEFPNQESLLKHVTIHFMITSTYYICESCDKQFTSVDDLQKHLLDMHTFVFFRCTLCQEVFDSKVSIQLHLAVKHSNEKKVYRCTSCNWDFRNETDLQLHVKHNHLENQGKVHKCIFCGESFGTEVELQCHITTHSKKYNCRFCSKAFHAVILLEKHLREKHCVFETKTPNCGTNGASEQVQKEEAELQTLLTNSQESHNSHDGSEEDVDSSEPMYGCDICGAAYTMETLLQNHQLRDHNIRPGESAIVKKKAELIKGNYKCNVCSRTFFSENGLREHMQTHLGPVKHYMCPICGERFPSLLTLTEHKVTHSKSLDTGNCRICKMPLQSEEEFLEHCQMHPDLRNSLTGFRCVVCMQTVTSTLELKIHGTFHMQKTGNGSSVQTTGRGQHVQKLYKCASCLKEFRSKQDLVKLDINGLPYGLCAGCVNLSKSSSPGLSLPPGASRPGLGQNESLSAMEGKGKAGGLKTRCSSCNVKFESESELQNHIQTVHRELVPDANSTQLKTPQVSPMPRISPSQSDEKKTYQCIKCQMVFYNEWDIQVHVANHMIDEGLNHECKLCSQTFDSPAKLQCHLIEHSFEGMGGTFKCPVCFTVFVQANKLQQHIFSAHGQEDKIYDCTQCPQKFFFQTELQNHTMTQHSS
binding [1]: binds
